Laboratory results: article PMC2642718

Molecular target: StcE fused to a chitin binding domain (StcE-CBD) (Escherichia coli O157:H7)
Assay: pull-down; StcE-CBD bound to chitin beads incubated with lysed dHL-60 cells, in the presence of EDTA; chitin beads alone as control; immunoblot for CD43 (L10) or CD45 (HI-30); only the target purified

B1: CD43 (leukosialin), endogenous, in cell lysates (protein, UniProt P16150 20-400)
chain: STTAVQTPTSGEPLVSTSEPLSSKMYTTSITSDPKADSTGDQTSALPPSTSINEGSPLWTSIGASTGSPLPEPTTYQEVSIKMSSVPQETPHATSHPAVPITANSLGSHTVTGGTITTNSPETSSRTSGAPVTTAASSLETSRGTSGPPLTMATVSLETSKGTSGPPVTMATDSLETSTGTTGPPVTMTTGSLEPSSGASGPQVSSVKLSTMMSPTTSTNASTVPFRNPDENSRGMLPVAVLVALLAVIVLVALLLLWRRRQKRRTGALVLSRGGKRNGVVDAWAGPAQVPEEGAVTVTVGGSGGDKGSGFPDGEGSSRRPTLTTFFGRRKSRQGSLAMEELKSGSGPSLKGEEEPLVASEDGAVDAPAPDEPEGGDGAAP
**Q.** With B1 as the binder, how does the binding read?
**A.** binds

These are yes or no findings as the source states them, for the method shown. In cells and extracts the contact can be indirect. A result given as binding can be weak or reduced; the word gives no strength.
